Laboratory results reported in PMC10954470.
Results are given in words; binding and its absence hold for the method and conditions named. Binding seen in cells or lysates may run through a third protein. Some entries that bind do so weakly or less than the wild type. Where a sequence is shown, tags or fusion partners need not be part of it.

Chains of the proteins cited; added tags and fusions are not shown. Lines headed by an entry give the natural chain unless they say otherwise; changes in a name come on top.
UniProt Q06208, whole entry, looked up, stated change not applied: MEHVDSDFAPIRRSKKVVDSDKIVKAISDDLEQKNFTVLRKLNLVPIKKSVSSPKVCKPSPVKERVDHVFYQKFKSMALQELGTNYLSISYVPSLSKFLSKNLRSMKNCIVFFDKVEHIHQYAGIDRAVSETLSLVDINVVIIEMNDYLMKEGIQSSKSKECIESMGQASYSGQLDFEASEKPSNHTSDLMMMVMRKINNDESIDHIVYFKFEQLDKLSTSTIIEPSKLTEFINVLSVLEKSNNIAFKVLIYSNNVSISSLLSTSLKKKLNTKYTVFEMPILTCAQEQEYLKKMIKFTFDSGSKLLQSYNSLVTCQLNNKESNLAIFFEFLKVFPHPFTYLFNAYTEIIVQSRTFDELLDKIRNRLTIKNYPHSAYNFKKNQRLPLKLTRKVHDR

Target: T1, Rad50-HA (Rad50, hemagglutinin-tagged at its native genomic locus) (S. cerevisiae) (UniProt P12753)
T1 sequence: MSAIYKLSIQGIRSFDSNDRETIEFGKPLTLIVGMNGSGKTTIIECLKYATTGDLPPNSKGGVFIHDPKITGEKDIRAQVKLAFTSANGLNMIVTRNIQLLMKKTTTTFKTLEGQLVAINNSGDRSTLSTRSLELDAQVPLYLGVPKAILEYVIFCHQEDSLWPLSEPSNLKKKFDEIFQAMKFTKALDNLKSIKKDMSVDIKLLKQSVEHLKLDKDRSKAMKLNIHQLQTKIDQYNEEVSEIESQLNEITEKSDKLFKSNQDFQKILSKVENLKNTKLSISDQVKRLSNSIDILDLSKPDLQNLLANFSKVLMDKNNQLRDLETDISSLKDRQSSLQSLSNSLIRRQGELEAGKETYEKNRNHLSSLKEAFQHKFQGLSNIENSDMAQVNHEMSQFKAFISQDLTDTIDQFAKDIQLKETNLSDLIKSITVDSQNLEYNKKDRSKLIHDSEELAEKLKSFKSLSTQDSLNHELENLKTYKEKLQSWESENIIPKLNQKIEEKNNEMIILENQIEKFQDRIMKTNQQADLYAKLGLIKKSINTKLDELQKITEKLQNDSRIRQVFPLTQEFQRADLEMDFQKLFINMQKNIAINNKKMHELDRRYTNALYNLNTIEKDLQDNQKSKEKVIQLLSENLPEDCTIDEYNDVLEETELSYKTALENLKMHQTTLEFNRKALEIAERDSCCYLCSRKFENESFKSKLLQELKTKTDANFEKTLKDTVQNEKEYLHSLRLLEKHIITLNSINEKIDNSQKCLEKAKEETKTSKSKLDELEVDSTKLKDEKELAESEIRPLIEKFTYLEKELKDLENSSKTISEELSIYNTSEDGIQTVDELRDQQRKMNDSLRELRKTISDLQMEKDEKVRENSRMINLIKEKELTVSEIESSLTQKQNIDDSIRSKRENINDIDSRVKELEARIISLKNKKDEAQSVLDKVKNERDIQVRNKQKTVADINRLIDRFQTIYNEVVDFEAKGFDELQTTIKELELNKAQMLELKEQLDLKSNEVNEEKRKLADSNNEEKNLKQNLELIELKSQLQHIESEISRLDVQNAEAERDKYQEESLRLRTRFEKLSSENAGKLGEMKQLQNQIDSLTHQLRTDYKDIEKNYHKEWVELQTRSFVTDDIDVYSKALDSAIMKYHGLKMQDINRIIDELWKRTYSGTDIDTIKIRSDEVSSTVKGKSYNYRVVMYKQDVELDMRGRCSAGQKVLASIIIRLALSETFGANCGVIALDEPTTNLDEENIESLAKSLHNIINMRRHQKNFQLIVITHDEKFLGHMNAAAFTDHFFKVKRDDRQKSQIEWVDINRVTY
Test: co-IP; Rad50-HA immunoprecipitated with anti-HA (12CA5) and Protein G-Dynabeads from total yeast protein extracts, 2 h at 4°C; 50 mM HEPES pH 7.5, 140 mM NaCl, 1 mM EDTA, 10% glycerol; blot with anti-Myc (9E10)

B1: Rif2^S6E-Myc (Rif2 S6E, epitope-tagged at its native genomic locus) (protein, UniProt Q06208 1-395)
chain: MEHVDEDFAPIRRSKKVVDSDKIVKAISDDLEQKNFTVLRKLNLVPIKKSVSSPKVCKPSPVKERVDHVFYQKFKSMALQELGTNYLSISYVPSLSKFLSKNLRSMKNCIVFFDKVEHIHQYAGIDRAVSETLSLVDINVVIIEMNDYLMKEGIQSSKSKECIESMGQASYSGQLDFEASEKPSNHTSDLMMMVMRKINNDESIDHIVYFKFEQLDKLSTSTIIEPSKLTEFINVLSVLEKSNNIAFKVLIYSNNVSISSLLSTSLKKKLNTKYTVFEMPILTCAQEQEYLKKMIKFTFDSGSKLLQSYNSLVTCQLNNKESNLAIFFEFLKVFPHPFTYLFNAYTEIIVQSRTFDELLDKIRNRLTIKNYPHSAYNFKKNQRLPLKLTRKVHDR
  binding: binds
